This passage reports binding results from doi:10.1101/2024.04.08.588543.

No constants are given. Whether binding was seen depends on the method and setting. A result given as binding can be weak or reduced; the word gives no strength.

This test concerns the target NtGEF12a (Nicotiana tabacum (tobacco)). In words: two-hybrid.

Consider NtRAC5 (from UniProt Q9S820), for which the binding result is on record as “binds”.
